No constants are given. Whether binding was seen depends on the method and setting. Some results given as binding are weak or reduced against the parent protein; the word gives no strength. Each block holds one binder with its values, some of them ahead of it.
What was measured:
[1] = target: T1, β8 chain of αvβ8 integrin (Itgβ8) expressed on mouse Tregs (mouse) (UniProt Q0VBD0+P43406); test: flow cytometry, supernatants on mouse lymph node cells, anti-IgM secondary
[2] = target: T1, β8 chain of αvβ8 integrin (Itgβ8) expressed on mouse Tregs (mouse); test: flow cytometry on mouse lymph node Tregs (FIG. 2)
[3] = target: T1, β8 chain of αvβ8 integrin (Itgβ8) expressed on mouse Tregs (mouse); test: conclusion of the example (flow cytometry on Tregs)
[4] = target: T2, recombinant mouse Itgβ8 (mouse) (UniProt Q0VBD0); test: ELISA of hybridoma supernatants on recombinant mouse Itgβ8
T2 sequence (looked up): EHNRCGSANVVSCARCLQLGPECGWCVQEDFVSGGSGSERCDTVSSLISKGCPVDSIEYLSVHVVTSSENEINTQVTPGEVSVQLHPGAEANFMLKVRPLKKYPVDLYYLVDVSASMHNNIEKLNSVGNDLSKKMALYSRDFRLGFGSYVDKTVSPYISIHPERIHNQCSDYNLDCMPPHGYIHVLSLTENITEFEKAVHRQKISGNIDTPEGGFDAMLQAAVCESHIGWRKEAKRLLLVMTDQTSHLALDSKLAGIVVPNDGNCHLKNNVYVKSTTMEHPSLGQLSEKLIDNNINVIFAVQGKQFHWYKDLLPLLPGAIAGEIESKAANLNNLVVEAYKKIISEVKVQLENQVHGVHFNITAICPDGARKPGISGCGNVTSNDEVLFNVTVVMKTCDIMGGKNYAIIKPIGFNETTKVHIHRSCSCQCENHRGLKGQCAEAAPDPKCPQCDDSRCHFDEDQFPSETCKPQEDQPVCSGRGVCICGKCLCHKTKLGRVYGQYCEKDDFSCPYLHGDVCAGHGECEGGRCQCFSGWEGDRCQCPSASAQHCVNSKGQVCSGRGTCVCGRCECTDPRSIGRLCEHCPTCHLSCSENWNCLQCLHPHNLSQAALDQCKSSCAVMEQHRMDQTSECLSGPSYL

By UniProt entry, the sequences of proteins in these tests, tags left out. Where a name states a change or a piece, a line headed by the entry shows the natural chain unless it says otherwise.
UniProt P43406: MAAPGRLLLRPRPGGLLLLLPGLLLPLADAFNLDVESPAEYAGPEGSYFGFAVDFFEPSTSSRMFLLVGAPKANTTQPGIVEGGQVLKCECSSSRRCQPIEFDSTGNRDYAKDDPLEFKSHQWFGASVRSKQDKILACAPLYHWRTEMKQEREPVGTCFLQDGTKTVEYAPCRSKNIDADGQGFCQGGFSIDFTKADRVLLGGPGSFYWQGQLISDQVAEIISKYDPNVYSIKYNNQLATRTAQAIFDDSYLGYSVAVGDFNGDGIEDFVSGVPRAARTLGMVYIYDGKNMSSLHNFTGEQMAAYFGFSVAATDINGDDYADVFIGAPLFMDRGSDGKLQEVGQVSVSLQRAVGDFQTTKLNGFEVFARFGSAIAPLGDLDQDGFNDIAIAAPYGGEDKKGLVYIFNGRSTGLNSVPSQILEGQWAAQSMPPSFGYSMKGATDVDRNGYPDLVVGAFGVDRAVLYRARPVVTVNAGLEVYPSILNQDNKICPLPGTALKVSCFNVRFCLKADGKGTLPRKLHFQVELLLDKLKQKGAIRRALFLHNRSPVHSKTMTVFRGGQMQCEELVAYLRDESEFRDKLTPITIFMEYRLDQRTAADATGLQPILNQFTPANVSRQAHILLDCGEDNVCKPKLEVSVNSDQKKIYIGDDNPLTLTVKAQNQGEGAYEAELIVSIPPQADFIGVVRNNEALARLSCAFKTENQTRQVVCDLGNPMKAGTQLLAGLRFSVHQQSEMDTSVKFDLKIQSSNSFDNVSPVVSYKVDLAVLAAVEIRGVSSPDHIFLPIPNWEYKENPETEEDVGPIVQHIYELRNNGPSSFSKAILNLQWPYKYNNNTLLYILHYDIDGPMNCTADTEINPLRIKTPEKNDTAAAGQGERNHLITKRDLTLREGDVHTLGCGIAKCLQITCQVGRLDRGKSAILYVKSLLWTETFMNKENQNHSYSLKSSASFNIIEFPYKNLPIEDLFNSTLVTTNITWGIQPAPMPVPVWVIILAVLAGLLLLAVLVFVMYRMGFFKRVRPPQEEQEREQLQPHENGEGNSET
UniProt P26012: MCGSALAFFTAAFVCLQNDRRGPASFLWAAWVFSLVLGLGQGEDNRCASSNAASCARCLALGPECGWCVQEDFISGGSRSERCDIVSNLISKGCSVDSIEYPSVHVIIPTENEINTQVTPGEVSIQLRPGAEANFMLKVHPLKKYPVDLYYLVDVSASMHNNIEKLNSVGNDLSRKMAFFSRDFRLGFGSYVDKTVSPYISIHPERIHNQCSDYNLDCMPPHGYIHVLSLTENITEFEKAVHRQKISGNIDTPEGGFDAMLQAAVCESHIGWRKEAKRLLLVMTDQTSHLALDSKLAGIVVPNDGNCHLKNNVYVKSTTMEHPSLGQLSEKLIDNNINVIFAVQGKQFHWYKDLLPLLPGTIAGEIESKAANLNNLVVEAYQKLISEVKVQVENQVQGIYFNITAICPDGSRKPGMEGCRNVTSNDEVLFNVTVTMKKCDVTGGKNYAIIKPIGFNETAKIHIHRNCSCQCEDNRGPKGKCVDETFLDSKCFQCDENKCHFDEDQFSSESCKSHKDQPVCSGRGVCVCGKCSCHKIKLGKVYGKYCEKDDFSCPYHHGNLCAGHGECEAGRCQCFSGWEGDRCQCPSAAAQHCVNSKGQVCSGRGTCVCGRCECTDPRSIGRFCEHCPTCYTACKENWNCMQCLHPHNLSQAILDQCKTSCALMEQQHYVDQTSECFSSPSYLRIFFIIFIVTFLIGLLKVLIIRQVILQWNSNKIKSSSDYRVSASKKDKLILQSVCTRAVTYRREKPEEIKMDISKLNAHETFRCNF
UniProt P06756: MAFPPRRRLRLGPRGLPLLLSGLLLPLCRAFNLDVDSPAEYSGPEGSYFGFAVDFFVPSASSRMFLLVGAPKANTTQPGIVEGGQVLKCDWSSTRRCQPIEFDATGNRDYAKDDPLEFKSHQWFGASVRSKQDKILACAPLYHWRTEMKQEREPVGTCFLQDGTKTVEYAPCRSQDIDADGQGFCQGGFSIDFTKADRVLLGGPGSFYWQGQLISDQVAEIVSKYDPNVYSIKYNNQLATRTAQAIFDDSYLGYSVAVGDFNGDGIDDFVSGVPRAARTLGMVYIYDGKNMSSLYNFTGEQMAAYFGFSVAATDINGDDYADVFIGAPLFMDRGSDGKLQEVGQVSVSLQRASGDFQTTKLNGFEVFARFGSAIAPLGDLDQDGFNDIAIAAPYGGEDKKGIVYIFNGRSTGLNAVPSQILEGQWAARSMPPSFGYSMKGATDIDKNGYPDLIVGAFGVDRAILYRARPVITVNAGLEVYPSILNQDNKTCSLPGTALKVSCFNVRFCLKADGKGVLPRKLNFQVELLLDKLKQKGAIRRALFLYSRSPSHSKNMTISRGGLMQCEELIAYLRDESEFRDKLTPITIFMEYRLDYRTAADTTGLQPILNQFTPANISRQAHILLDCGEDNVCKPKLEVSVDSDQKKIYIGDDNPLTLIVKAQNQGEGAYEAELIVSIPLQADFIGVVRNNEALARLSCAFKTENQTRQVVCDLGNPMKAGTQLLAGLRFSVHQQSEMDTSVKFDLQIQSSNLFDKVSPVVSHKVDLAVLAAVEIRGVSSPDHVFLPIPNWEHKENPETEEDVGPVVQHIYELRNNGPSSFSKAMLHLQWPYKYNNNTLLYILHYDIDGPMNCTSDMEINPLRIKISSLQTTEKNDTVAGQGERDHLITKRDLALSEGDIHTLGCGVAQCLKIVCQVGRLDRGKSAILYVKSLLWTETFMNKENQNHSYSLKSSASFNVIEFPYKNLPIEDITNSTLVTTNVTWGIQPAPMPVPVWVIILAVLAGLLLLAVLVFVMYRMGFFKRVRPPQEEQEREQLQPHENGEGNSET

[5] = target: β8 chain of αvβ8 integrin (Itgβ8) expressed on human tumor Treg cells (human) (UniProt P26012+P06756); test: staining of cells of one fresh human colonic tumor (data not shown)

- binding [1]: binds
- binding [2]: binds
- binding [3]: binds
- binding [4]: binds
B1: Mab 9B2 (antibody, V domains shown)
VH: QVQLQQSGAELAKPGASVKLSCKASGYTFTRYWMHWVKQRPGQGLEWIGHINPSSGYTKYNQKFKDKATLTADKSSSTAYMQLSSLTYEDSAVYYCAREVYYYGSSYGDFDYWGQGTTLTVSS
VL: QIVLTQSPAIMSASPGEKVTISCSASSSVSYMYWYQQKPGSSPKPWIYRTSNLASGVPARFSGSGSGTSYSLTISSMEAEDAATYYCQQYHSYPLTFGAGTKLELK
notes: Mouse hybridoma antibody tested as clone supernatant; also called 9B2 mAb; clone 1

- binding [1]: binds
- binding [2]: binds
- binding [5]: binds
- binding [3]: binds
- binding [4]: binds
B2: Mab 1G10H5 (antibody, V domains shown)
VH: QVQLQQSGAELARPGASVKMSCKASGYTFTSYTMHWVKQRPGQGLEWIGYINPSSGYTKYNQKFKDKATLTADKSSSTAYMQLSSLTSEDSAVYYCARAEGLRAWFAYWGQGTLVTVSA
VL: DIVMTQSQKFMSTSVGDRVSVTCKASQNVGTNVAWYQQKPGQSPKALIYSASYRYSGVPDHFTGSGSGTDFTLTIINVQSEDLAEYFCQQYNSYPYTFGGGTKLEIK

- binding [1]: binds
- binding [2]: binds
- binding [3]: binds
- binding [4]: binds
B3: Mab 1G10G4 (antibody, V domains shown)
VH: B2 VH
VL: B2 VL
notes: Mouse hybridoma antibody tested as clone supernatant; also called 1G10G4 mAb; clone 3

Source: patent US20260035468A1 (INSTITUT NATIONAL DE LA SANT ET DE LA RECHERCHE M DICALE, published 2026)
